# Hit rate of the full screen: of about 400,000 compounds, about 13,000 (3.2%) were called active. The inconclusive results got no clear call from the source; some entries with a clear call stand among them for comparison. Calls come from the whole dose curve; as a rule, active = well fitted cell-killing curve with a large enough effect; inconclusive = small, poorly fitted or top-dose-only effect, or effect the other way; inactive = flat fitted curve, though single readings scatter. A potency beside an inconclusive call is a rough fit, not a confirmed value.
# Assay: qHTS assay for MDR1-selective chemotherapeutics: Primary screen using the drug-selected MDR subline cells KB-V1; note: nearly all actives have a fitted effect of over 60% in size
# Settings: KB-V1 MDR cells viability, CellTiter-Glo, 72 h; activity change, negative = cytotoxicity: at 46.1 µM (top of the series)
# In short: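 Cytotoxicity toward P-gp-expressing KB-V1 cells was determined as loss of CellTiter-Glo luminescence after 72 h at 37 degrees C. Compounds were tested in quantitative HTS format across a concentration range, with curves fitted to normalized data.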
# % is set by controls: 0 for no effect and ±100 for the full control effect; potency is the fitted concentration of half-maximal effect.
Compound,Potency,"activity change, negative = cytotoxicity"
Cc1ccc(CNC(=O)C2CCCCN2S(=O)(=O)c2ccc(F)cc2)cc1 (configuration not stated),"inconclusive: 13 µM [cytotoxic, partial curve, poor fit]",–
COc1ccc(Cl)cc1Cn1c(C)c(C(=O)NCc2cccc(Cl)c2)sc1=O,active: 14.6 µM,–
CCOC(=O)c1nnn2c1nc(N1CCN(c3ccccc3)CC1)c1ccccc12,"inconclusive: 20.6 µM [cytotoxic, single point]",–
COc1ccc(C(CNC(=O)c2cccc(S(=O)(=O)N3CCCCC3)c2)N2CCCC2)cc1 (configuration not stated),"inconclusive: 6.51 µM [cytotoxic, partial curve, poor fit]",–
CCOC(=O)N1CCN(S(=O)(=O)c2c(C)nc3sccn3c2=O)CC1,"inconclusive: 18.4 µM [rising, single point]",–
Cc1ccc(-c2nc(-c3cc4cccc(OCc5ccc(F)cc5)c4oc3=O)no2)cc1,"inconclusive: 29.1 µM [rising, single point]",–
Cc1onc(-c2c(Cl)cccc2Cl)c1C(=O)N/N=C(\N)COc1ccc(Cl)cc1,–,inactive: -22.8%
COC(=O)C1=C(C(=O)OC)[C@@H]2N(C)c3ccc(OC)cc3[C@@]23C[C@@H](C(=O)OC)N(C(=O)NC2CCCCC2)C3=N1,"inconclusive: 7.31 µM [cytotoxic, partial curve]",–
CCOc1ccc(C(=O)CCC(=O)NC2=NCCS2)cc1,"inconclusive: 23.1 µM [rising, single point]",–
Cc1ccc2c(c1)nnn2C1CCN(C(=O)C23CC4CC(CC(C4)C2)C3)CC1,"inconclusive: 14.6 µM [cytotoxic, partial curve, poor fit]",–
O=C(COC(=O)c1ccco1)NCc1ccc(Cl)cc1Cl,"inconclusive: 29.1 µM [rising, single point]",–
O=C(CSc1nc(Nc2ccccc2)nc(N2CCOCC2)n1)Nc1cccc([N+](=O)[O-])c1,"inconclusive: 3.66 µM [cytotoxic, full curve]",–
Cc1ccc(-c2nn(CCC(=O)O)cc2CCC(=O)O)cc1,"inconclusive: 32.6 µM [cytotoxic, single point]",–
CCc1nnc(NC(=O)CCC(=O)N2CCN(S(=O)(=O)c3ccc(OC)cc3)CC2)s1,"inconclusive: 8.2 µM [rising, partial curve, poor fit]",–
Cc1cccc(C)c1NC(=O)Nc1nc(C(N)c2ccccc2Cl)cs1 (configuration not stated),–,inactive: -3.05%
Cc1ccc(S(=O)(=O)N(C)c2ccc(C(=O)Nc3cccc(C)n3)cc2)cc1,"inconclusive: 8.2 µM [cytotoxic, partial curve]",–
CSc1ncc(C(=O)Nc2cccc(C)c2C)c(-c2ccccc2)n1,–,inactive: -4.37%
CCOCCCNC(=S)N(Cc1ccco1)Cc1cc2cc3c(cc2[nH]c1=O)OCCO3,"inconclusive: 20.6 µM [cytotoxic, single point]",–
COC(=O)c1ccc2c(c1)N(Cc1cc(C)ccc1C)C(=O)c1ccccc1S2,"inconclusive: 9.2 µM [cytotoxic, partial curve]",–
COc1cccc(C(=O)Nc2cc(-c3cn4cccnc4n3)ccc2C)c1,"inconclusive: 16.4 µM [cytotoxic, partial curve]",–
CC(C)Oc1ccc(CNC(=O)CCC(=O)N2CCSc3ccccc32)cc1,–,inactive: 20.2%
COc1ccc(CNC(=O)CCNC(=O)c2ccco2)cc1OC,"inconclusive: 29.1 µM [rising, single point]",–
Cc1csc(SCc2nc3scc(-c4ccccc4)c3c(=O)[nH]2)n1,"inconclusive: 7.31 µM [cytotoxic, partial curve]",–

# Ordered by length of the SMILES (smallest number first): part of the list above
Compound,Potency,"activity change, negative = cytotoxicity"
COc1ccc(CNC(=O)CCNC(=O)c2ccco2)cc1OC,"inconclusive: 29.1 µM [rising, single point]",–
Cc1cccc(C)c1NC(=O)Nc1nc(C(N)c2ccccc2Cl)cs1 (configuration not stated),–,inactive: -3.05%
CCOC(=O)c1nnn2c1nc(N1CCN(c3ccccc3)CC1)c1ccccc12,"inconclusive: 20.6 µM [cytotoxic, single point]",–

# A few values from the list.
# Potency with COc1ccc(CNC(=O)CCNC(=O)c2ccco2)cc1OC reads inconclusive: 29.1 µM [rising, single point]
# Potency with O=C(CSc1nc(Nc2ccccc2)nc(N2CCOCC2)n1)Nc1cccc([N+](=O)[O-])c1 reads inconclusive: 3.66 µM [cytotoxic, full curve]

# (continued)

Compound,Potency,"activity change, negative = cytotoxicity"
O=C(NCC1CCCO1)c1ccc([N+](=O)[O-])o1 (configuration not stated),"inconclusive: 23.1 µM [cytotoxic, single point]",–
Cc1cc(N)c2cc(NC(=O)/C=C/c3ccccc3Cl)ccc2n1,–,inactive: 12.8%
CC(OCC(O)CNCC1COc2ccccc2O1)c1ccc(Cl)cc1 (configuration not stated),"inconclusive: 16.4 µM [cytotoxic, single point]",–
COc1cccc(OC)c1C(=O)OCC(=O)NC(=O)NCc1ccccc1,"inconclusive: 10.3 µM [cytotoxic, partial curve]",–
CCN1CCc2nc3sc(C(=O)c4ccccc4)c(N)c3cc2C1,"inconclusive: 11.6 µM [cytotoxic, partial curve]",–
Cc1cccc(C)c1NC(=O)CNC(=O)c1ccncc1,–,inconclusive: 46.1%
COc1ccc(C2(O)C(=O)Nc3ccccc32)cc1 (configuration not stated),"inconclusive: 8.2 µM [rising, partial curve, poor fit]",–
O=C1C2C3C=CC(C2C(=O)N1c1ccccc1O)C1C2C(=O)N(c4ccccc4O)C(=O)C2C31 (configuration not stated),"inconclusive: 16.4 µM [rising, partial curve]",–
CCCCNC(=O)OC1CCS(=O)(=O)C1 (configuration not stated),"inconclusive: 11.6 µM [rising, partial curve]",–
C/C(=N\NC(=O)COc1ccccc1)c1cccs1,"inconclusive: 29.1 µM [rising, single point]",–
Nc1nc(SCC(=O)c2cccs2)n[nH]1,"inconclusive: 23.1 µM [rising, partial curve, poor fit]",–
CCOC(=O)Cc1csc(SCC(=O)c2c(N)n(CC(C)C)c(=O)n(C)c2=O)n1,"inconclusive: 16.4 µM [cytotoxic, partial curve]",–
COc1ccc(-c2cn3ccccc3n2)cc1[N+](=O)[O-],"inconclusive: 20.6 µM [cytotoxic, partial curve, poor fit]",–
Cc1nnc(SCC(=O)Nc2ncc(Cc3ccc(F)cc3)s2)n1N,"inconclusive: 10.3 µM [rising, partial curve, poor fit]",–
COC(=O)c1cc(OC)c(OC)cc1NCC(=O)Nc1ccc(OC)c(OC)c1,"inconclusive: 29.1 µM [cytotoxic, single point]",–
O=C(CS(=O)(=O)c1cccc2nsnc12)Nc1ccc(F)cc1,–,inactive: -22.7%
Cc1cccc(C(=O)Nc2ccccc2C(=O)OCC(=O)Nc2ccc(C#N)cc2)c1,"inconclusive: 16.4 µM [cytotoxic, single point]",–
COCCN(C(=O)c1ccco1)c1nc(-c2ccc(OC)cc2)cs1,"inconclusive: 29.1 µM [cytotoxic, single point]",–
O=C(CSc1ncc(C(F)(F)F)cc1Cl)N1CCN(S(=O)(=O)c2ccc(Cl)cc2)CC1,–,inactive: 5.16%
Cc1ccc2c(c1)C=CC(C#N)N2C(=O)c1ccccc1 (configuration not stated),active: 9.2 µM,–
O=C(Nc1cccc(NC(=O)c2ccc(Cl)cc2Cl)c1)c1cccnc1,"inconclusive: 8.2 µM [cytotoxic, partial curve]",–
CCN1CCc2c(OCC(=O)N3CCCCC3)cccc2C1=O,"inconclusive: 18.4 µM [cytotoxic, single point]",–
CCSc1nnc(-c2ccc(S(=O)(=O)N3CCOCC3)cc2)n1CC1CCCO1 (configuration not stated),"inconclusive: 18.4 µM [cytotoxic, single point]",–

Compound,Potency,"activity change, negative = cytotoxicity"
CC(=O)N1CCC2(CC1)NC(=O)N(c1ccccc1)N2,–,inactive: -1.14%
COc1ccc(S(=O)(=O)N2CCN(c3ccc(Cl)c(Cl)c3)CC2)c2ccccc12,"inconclusive: 11.6 µM [cytotoxic, partial curve]",–
Cc1cc(Cl)ccc1OCC(=O)N1CCCN(C(=O)COc2ccc(Cl)cc2C)CC1,active: 5.8 µM,–
Cc1cc(C)c(Cn2ncn(-c3ccc(Br)cc3)c2=O)c(C)c1,–,inactive: 7.43%
C/C(=N\Nc1nc(N)cc(Cl)n1)c1cccc([N+](=O)[O-])c1,"inconclusive: 23.1 µM [cytotoxic, single point]",–
CCCCC(=O)NC(c1ccc(OC)c(OC)c1)c1c(O)ccc2ccccc12 (configuration not stated),active: 14.6 µM,–
COc1ccc(-c2noc(-c3ccccc3-c3ccccc3)n2)cc1OC,"inconclusive: 5.8 µM [cytotoxic, partial curve]",–
CCCCOCCCNC(=O)C[C@@H]1C[C@@]2(C(=O)OCC)CCC=C2N(Cc2ccccc2)C1=O,"inconclusive: 7.31 µM [cytotoxic, partial curve]",–
N#CCCN(C(=O)COC(=O)C1=NNC(=O)CC1)c1ccccc1,–,inactive: 16.7%
Cc1ccc(NC(=O)CSc2nc3ccccc3nc2Cc2ccccc2)c(C)c1,"inconclusive: 29.1 µM [rising, single point]",–
Cc1cccc(NC(=O)c2cc(-c3ccc4c(c3)OCCO4)on2)c1,–,inactive: -22.1%
CCOC(=O)c1ccc(N2CCOCC2)c(NC(=O)c2nccnc2C(=O)O)c1,"inconclusive: 29.1 µM [rising, single point]",–
COc1ccc(CCN(C)C(=O)c2cc(-c3ccccc3)nc3ccc(C)cc23)cc1OC,–,inactive: -19.1%
CC1CCN(C(=O)c2ccc(COc3ccccc3Cl)o2)CC1,"inconclusive: 16.4 µM [cytotoxic, partial curve, poor fit]",–
Cc1cc(NCCCN(C)C)n2nc(-c3cccs3)cc2n1,–,inactive: -18.7%
COc1ccc(C(=O)NCC2OCCc3ccccc32)c(O)c1 (configuration not stated),–,inactive: -16.1%
CCOC(=O)N1CCC(N2C(=O)c3ccccc3C2Nc2cc(OC)c(OC)c(OC)c2)CC1 (configuration not stated),–,inactive: 0%
Cc1cc(-c2n[nH]c(=S)n2Cc2ccco2)n(C)n1,"inconclusive: 29.1 µM [rising, single point]",–
COc1cc(C(=O)OCC(=O)N2CCN(S(=O)(=O)c3ccc(C)cc3C)CC2)c([N+](=O)[O-])cc1OC,active: 9.2 µM,–
Cc1ccc(NC(=S)N2CCN(S(=O)(=O)c3ccc(C)cc3)CC2)cc1,"inconclusive: 16.4 µM [cytotoxic, single point]",–
O=C(C1=C[C@@H](c2ccc(Br)cc2)C[C@@H](OCc2ccc(CO)cc2)O1)N1CCN(Cc2ccccc2)CC1,"inconclusive: 29.1 µM [cytotoxic, single point]",–
